Earlier results, collected in PMC7053747 (PLoS ONE, 2020).

Molecular target: mu opioid receptor
Conditions: cited from earlier work

COc1cccc(C2(O)CCCCC2CN(C)C)c1 (stereo not shown) [tramadol, reference compound]
Ki: 12.5 µM
